# Part of at least one peptide drawing is inferred or uncertain, most often the ends. Ends that are not written are not given here.
# The chains behind the UniProt entries cited, without tags or fusion partners. Where a name states a change or a piece, a line headed by the entry shows the natural chain unless it says otherwise.
# UniProt P31750: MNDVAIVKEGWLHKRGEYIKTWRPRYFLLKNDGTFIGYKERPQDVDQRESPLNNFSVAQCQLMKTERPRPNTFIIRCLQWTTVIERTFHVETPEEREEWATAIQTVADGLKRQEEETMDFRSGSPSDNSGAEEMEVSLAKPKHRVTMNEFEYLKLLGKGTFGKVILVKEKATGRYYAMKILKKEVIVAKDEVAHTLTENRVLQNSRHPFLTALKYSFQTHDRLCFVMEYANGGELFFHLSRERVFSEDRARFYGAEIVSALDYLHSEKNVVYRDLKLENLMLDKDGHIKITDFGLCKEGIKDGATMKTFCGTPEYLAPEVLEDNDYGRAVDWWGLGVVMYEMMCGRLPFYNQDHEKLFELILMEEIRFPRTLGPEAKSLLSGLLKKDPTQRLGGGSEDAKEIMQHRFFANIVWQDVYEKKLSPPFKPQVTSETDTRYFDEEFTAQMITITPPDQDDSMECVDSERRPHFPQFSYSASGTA
# Biological target: Akt1 (Mus musculus, UniProt P31750)
# Test: Akt1 activation (pAkt1) in melanoma cells by western blot
# Format: cell-based
# Parameters: endogenous in cells
# Conditions: both B16 and YUMM1.7 cells, 40 μg/ml, 5 h, vs control peptide
# Experimental: FIG. 3 depicts in accordance with various embodiments of the invention, that TAT-IL-1α peptide diminished Akt1 activation and increased HK-2 mitochondrial dissociation. B16 or Yumm 1.7 murine melanoma cells were treated with TAT-IL-1α (40 μg/ml) or TAT-Control peptide for 5 hours. HK-2 level and pAkt1 activation in the cytosolic and mitochondrial fraction were detected by Western Blot. GAPDH was measured as a loading control.
# FIGS. 10A-10C depict in accordance with various embodiments of the invention, the iIL-1α-peptide reduces Akt1 activation and glycolysis in melanoma cells. […] FIG. 10B) HK-2 and pAkt1 in cytosolic and mitochondrial fraction were determined by WB. […] FIG. 10C) Extracellular acidification rate (ECAR) was measured by Seahorse and compared over time in PBS and iIL-1α-peptide treated mice.
# FIGS. 12A-12F depict in accordance with various embodiments of the invention, that the iIL-1α-peptide reduces cutaneous melanoma tumor. FIG. 12A-12B) Membrane lipid strips were incubated with (5 μg) SPDIA or Control peptide and detected by ECL. FIG. 12C) B16 or YUMM1.7 cells were treated with SPDIA or Control peptide (40 μg/ml) for 5 h, and pAkt1 and Akt1 in cell lysate were determined by WB. […] FIG. 12F) Quantification of tumor volume, ** p<0.05. and Quantification of tumor mass, ** p<0.05. n=5. […]
sequence,measurement,value
"GKVLKKRRLSL [SPDIA, GKVLKKRRLSL]",Akt1 activation (pAkt1/Akt1 in cell lysate),significantly reduced

# From US12168037B2, “Intracellular IL-1 alpha peptide methods and compositions” (CEDARS-SINAI MEDICAL CENTER, priority 2018, dated 2024)
